This is one part of the list. Shown are side measurements of this screen, not its main read-out; they come without a call. The list favours compounds with an active or inconclusive main result. Words in brackets tell the shape of the fitted curve; partial curves, single points and poor fits give uncertain potencies.
Assay: qHTS Assay for Lipid Storage Modulators in Drosophila S3 Cells;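 for cell number change: cells counted by Cell Tracker Red CMTPX staining in the red channel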
Conditions: BODIPY lipid droplet fluorescence, 18-24 h; for cell number change: measured here: cell count max response, cells fed with added oleic acid
Summary of the method: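 Laser-scanning cytometry quantifies lipid droplet accumulation (500–530 nm total intensity; droplet/cell object ratio) in oleic acid-fed (400 uM added) Drosophila S3 cells treated with a concentration series. 20 uM Triacsin C defined 100% inhibition.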

[1] = measured here: lipid fluorescence (Fed channel) AC50, cells fed with added oleic acid
[2] = measured here: cell number channel AC50, cells fed with added oleic acid

Q: Which cell number change does the source give for CC(=O)Oc1ccccc1C(=O)Oc1ccccc1C(=O)O here?
A: The cell number change was -8.31%.

Q: And the AC50 [1]?
A: The AC50 was 0.651 µM [falling, full curve, poor fit].

Q: For CCn1cc(C(=O)N(C)Cc2ccc(OC(F)F)cc2)c(=O)c2ccc(C)nc21, which AC50 [1] is on record?
A: Its AC50 is 1.64 µM [falling, partial curve, poor fit].

Q: For OC(COc1ccc(Br)cc1)CN1CCC(Cc2ccccc2)CC1 (stereo unspecified), which cell number change is on record?
A: The cell number change was -7.46%.

Q: For O=C(O)C1C2CCC(O2)C1C(=O)Nc1ccc(O)cc1 (stereo unspecified), which cell number change is on record?
A: Its cell number change is -1.73%.

Q: And the AC50 [1]?
A: Its AC50 is 6.51 µM [rising, full curve, poor fit].

Q: For CN1CC=C2C(C#N)=C(N)C(C#N)(C#N)[C@H](c3ccoc3)[C@H]2C1, which cell number change is on record?
A: The cell number change was 8%.

Q: What about the AC50 [1] of the same compound?
A: The AC50 was 0.103 µM [rising, full curve, poor fit].

Q: Which cell number change does the source give for Nc1ccccc1SC1CC(=O)N(c2ccccc2Cl)C1=O (stereo unspecified) here?
A: Its cell number change is 35.6%.

Q: And the AC50 [2]?
A: The AC50 was 29.1 µM [rising, single point].

Q: What does the source list for O=S(=O)(c1ccc(N2CCCC2)nc1)N1CCOCC1?
A: cell number change: 8.45%; AC50 [1]: 0.731 µM [falling, full curve]

Q: Which results are given for O=C(c1ccc(S(=O)(=O)NCc2ccco2)cc1)N1CCCC(C(F)(F)F)C1 (stereo unspecified)?
A: cell number change: -18.7%; AC50 [1]: 4.11 µM [falling, single point]

Q: For CCN1/C(=C\c2ccc3cc(C)ccc3[n+]2CC)Sc2cc(C)c(C)cc21, which cell number change is on record?
A: Its cell number change is -98.5%.

Q: And the AC50 [1]?
A: Its AC50 is 4.61 µM [falling, full curve].

Q: For O=C1Nc2ccccc2C1(c1ccccc1)c1ccccc1, which cell number change is on record?
A: The cell number change was -23%.

Q: And the AC50 [2]?
A: The AC50 was 0.651 µM [falling, full curve].

Q: What about the AC50 [1] of the same compound?
A: Its AC50 is 0.651 µM [falling, full curve].

Q: For Cc1cccc(CS(=O)(=O)c2ncc(Cl)c(C(=O)NCc3ccccc3)n2)c1, which cell number change is on record?
A: Its cell number change is 6.23%.

Q: What about the AC50 [2] of the same compound?
A: Its AC50 is 2.91 µM [falling, partial curve].

Q: And the AC50 [1]?
A: The AC50 was 3.66 µM [falling, partial curve].

Q: For COc1ccc(OC)c(N(CC(=O)N2CCN(Cc3ccccc3)CC2)S(C)(=O)=O)c1, which cell number change is on record?
A: The cell number change was -11.5%.

Q: What about the AC50 [1] of the same compound?
A: Its AC50 is 7.31 µM [rising, partial curve, poor fit].

Q: Which cell number change does the source give for COC(=O)CNC(=O)Cc1c(C)n(C(=O)c2ccc(Cl)cc2)c2ccc(OC)cc12 here?
A: The cell number change was -12.9%.

Q: What about the AC50 [1] of the same compound?
A: Its AC50 is 16.4 µM [falling, single point].

Q: For CN(C)c1ccc(C2N(C(=O)N3CCOCC3)CCN2S(=O)(=O)c2ccccc2)cc1 (stereo unspecified), which cell number change is on record?
A: Its cell number change is 4.13%.

Q: What about the AC50 [1] of the same compound?
A: Its AC50 is 0.13 µM [falling, full curve, poor fit].

Q: Which results are given for CCN(CC)c1ccc(NC(=O)CSc2ccsc2[N+](=O)[O-])c(C)c1?
A: cell number change: 31%; AC50 [2]: 13 µM [rising, single point]

Q: What does the source list for OC(CNCc1ccncc1)c1ccccc1 (stereo unspecified)?
A: cell number change: 4.91%; AC50 [2]: 0.00461 µM [rising, full curve, poor fit]

Q: What does the source list for CCOC(=O)c1ccc(Nc2ncnc3nc[nH]c23)cc1?
A: cell number change: -0.733%; AC50 [1]: 6.51 µM [rising, single point]

Q: What does the source list for CC1CCC(C(C)C)C(OC(=O)Cn2c(-c3ccc(F)cc3)[n+](C)c3ccccc32)C1 (stereo unspecified)?
A: cell number change: -54.4%; AC50 [2]: 8.2 µM [falling, partial curve]; AC50 [1]: 6.51 µM [falling, partial curve]

Q: Which cell number change does the source give for COC(=O)c1cn(NC(=O)c2ccccc2[N+](=O)[O-])c(=O)c2ccccc12 here?
A: The cell number change was 76.7%.

Q: Which cell number change does the source give for Cc1cccc(-c2nc(CS(=O)CC(=O)N3CCN(C)CC3)c(C)o2)c1 (stereo unspecified) here?
A: Its cell number change is 9.7%.

Q: And the AC50 [1]?
A: Its AC50 is 6.51 µM [falling, partial curve, poor fit].

Q: With COc1ccccc1N1CCN(C(=O)c2ccc3nc[nH]c3c2)CC1 as the compound, how does the cell number change read?
A: Its cell number change is 9.29%.

Q: For CCC(C)C(=O)Nc1ccc(OC)cc1OC (stereo unspecified), which AC50 [1] is on record?
A: Its AC50 is 1.46 µM [falling, partial curve].

Q: For CC(C)Oc1ccc(C(=O)Nc2ccc(Cl)c(S(=O)(=O)Nc3ccc(Cl)cc3)c2)cc1, which cell number change is on record?
A: The cell number change was 12.1%.

Q: And the AC50 [2]?
A: The AC50 was 1.16 µM [rising, partial curve, poor fit].

Q: And the AC50 [1]?
A: The AC50 was 1.03 µM [rising, partial curve].

Q: For O=C(c1cc2ccccc2o1)N1CCN(S(=O)(=O)c2ccc(F)c(F)c2F)CC1, which cell number change is on record?
A: Its cell number change is -9.8%.

Q: What about the AC50 [2] of the same compound?
A: Its AC50 is 4.11 µM [rising, single point].

Q: What about the AC50 [1] of the same compound?
A: Its AC50 is 2.91 µM [rising, partial curve].

Q: For COc1cccc(C(=O)N2CCCc3ccccc32)c1, which cell number change is on record?
A: Its cell number change is -1.89%.

Q: Which results are given for O=c1oc2ccccc2c(Nc2ccc(Cl)cc2)c1[N+](=O)[O-]?
A: cell number change: 28.7%; AC50 [1]: 0.731 µM [rising, partial curve, poor fit]

Q: What does the source list for COc1cc([C@@H]2c3cc4c(cc3[C@@H](NC3CCN(Cc5ccccc5)CC3)[C@H]3COC(=O)[C@H]23)OCO4)cc(OC)c1O?
A: cell number change: -13.7%; AC50 [2]: 4.11 µM [falling, partial curve, poor fit]; AC50 [1]: 1.16 µM [falling, partial curve, poor fit]

Q: Which cell number change does the source give for COc1ccc(C)cc1N(CC(=O)N1CCOCC1)S(C)(=O)=O here?
A: Its cell number change is -5.87%.

Q: What about the AC50 [1] of the same compound?
A: Its AC50 is 16.4 µM [rising, partial curve].

Q: With CCCCN(C)C(=O)c1cc2c(s1)-c1ccccc1S(=O)(=O)C2 as the compound, how does the cell number change read?
A: Its cell number change is 1.94%.

Q: With O=C(COc1cccc(C(F)(F)F)c1)N1CCN(c2ccc(O)cc2)CC1 as the compound, how does the AC50 [1] read?
A: The AC50 was 29.1 µM [rising, single point].

Q: Which cell number change does the source give for Cc1cc(C)n(-c2nc3ccccc3n3cnnc23)n1 here?
A: The cell number change was 12.5%.

Q: What about the AC50 [1] of the same compound?
A: The AC50 was 4.61 µM [rising, full curve, poor fit].

Q: Which cell number change does the source give for CC(=O)c1ccc(S(=O)(=O)N(C)CCCC(=O)N2CCN(c3ncccn3)CC2)cc1 here?
A: The cell number change was -0.551%.

Q: And the AC50 [1]?
A: The AC50 was 29.1 µM [rising, single point].

Q: For O=C(Nc1cc(F)cc(F)c1)c1sc(Cl)nc1-c1ccccc1, which AC50 [1] is on record?
A: The AC50 was 6.51 µM [rising, single point].

Q: With O=C(C(=O)N1CCOCC1)c1cn(CC(=O)N2CCc3ccccc3C2)c2ccccc12 as the compound, how does the cell number change read?
A: Its cell number change is -3.95%.

Q: What about the AC50 [1] of the same compound?
A: The AC50 was 6.51 µM [falling, single point].

Q: With COc1ccc(NC(=S)N2CCC(NC(=O)c3cccc(F)c3)CC2)cc1 as the compound, how does the AC50 [1] read?
A: The AC50 was 0.0651 µM [rising, partial curve, poor fit].

Q: For CCCC(=O)N1CCN(c2ccc(NC(=O)c3ccc([N+](=O)[O-])o3)cc2)CC1, which cell number change is on record?
A: The cell number change was -33.9%.

Q: And the AC50 [2]?
A: Its AC50 is 2.59 µM [rising, single point].

Q: And the AC50 [1]?
A: The AC50 was 20.6 µM [falling, partial curve, poor fit].

Q: Which cell number change does the source give for CC1(C)Cc2cccc(OCC(=O)Nc3ccc(OCC(N)=O)cc3)c2O1 here?
A: The cell number change was 2.77%.

Q: And the AC50 [1]?
A: Its AC50 is 0.146 µM [falling, full curve, poor fit].

Source: PubChem BioAssay AID2685 (National Center for Advancing Translational Sciences (NCATS), 2010)
